{"source": "PubChem BioAssay AID686943 (Drosophila RNAi Screening Center, 2013)", "aim": "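Fly genes whose loss alters ERK activation after insulin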 (primary screen)", "cells": "Drosophila S2R+ haemocyte-like cells expressing YFP-tagged ERK (Rolled)", "reagents": "long dsRNA against Drosophila genes", "challenge": "insulin stimulation versus unstimulated cells; dose and duration not given", "measurement": "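Antibody staining for doubly phosphorylated ERK divided by ERK-YFP signal, as plate z-scores, in insulin-treated and untreated cells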", "reading the numbers": "replicate 1, z-score of dpERK with insulin and replicate 2, z-score of dpERK with insulin: higher = more active ERK per ERK-YFP after insulin", "note": "In all, the deposit lists about 23,000 reagents; this is an unselected part of those that have a named target and a result. 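Extra replicates exist only for a retested subset of genes; insulin dose and duration not given; both raised and lowered dpERK matter.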 A plus sign joins genes that one reagent is predicted to hit. Not all columns of the deposit are shown. Not stated in the record: the amount of reagent, the time to read-out."}
{"gene": "Grx5", "dsRNA": "DRSC19593", "replicate 1, z-score of dpERK with insulin": 0.12, "replicate 2, z-score of dpERK with insulin": 2.05}
{"gene": "Amy-p", "dsRNA": "DRSC06786", "replicate 1, z-score of dpERK with insulin": -0.21, "replicate 2, z-score of dpERK with insulin": -0.01}
{"gene": "nac", "dsRNA": "DRSC16520", "replicate 1, z-score of dpERK with insulin": -0.18, "replicate 2, z-score of dpERK with insulin": 0.23}
{"gene": "CG32708", "dsRNA": "DRSC18411", "replicate 1, z-score of dpERK with insulin": 0.59, "replicate 2, z-score of dpERK with insulin": 0.03}
{"gene": "trh", "dsRNA": "DRSC08355", "replicate 1, z-score of dpERK with insulin": 0.95, "replicate 2, z-score of dpERK with insulin": 0.34}
{"gene": "trh", "dsRNA": "DRSC08739", "replicate 1, z-score of dpERK with insulin": 0.01, "replicate 2, z-score of dpERK with insulin": 0.83}
{"gene": "Elp2", "dsRNA": "DRSC06095", "replicate 1, z-score of dpERK with insulin": 0.54, "replicate 2, z-score of dpERK with insulin": -0.28}
{"gene": "Adgf-B", "dsRNA": "DRSC10568", "replicate 1, z-score of dpERK with insulin": -0.78, "replicate 2, z-score of dpERK with insulin": -0.22}
{"gene": "yellow-e", "dsRNA": "DRSC12966", "replicate 1, z-score of dpERK with insulin": 0.54, "replicate 2, z-score of dpERK with insulin": 0.16}
{"gene": "yellow-e", "dsRNA": "DRSC16563", "replicate 1, z-score of dpERK with insulin": -0.07, "replicate 2, z-score of dpERK with insulin": 0.14}
{"gene": "Grasp65", "dsRNA": "DRSC10917", "replicate 1, z-score of dpERK with insulin": 0.56, "replicate 2, z-score of dpERK with insulin": 0.93}
{"gene": "CG12253", "dsRNA": "DRSC02153", "replicate 1, z-score of dpERK with insulin": 0.41, "replicate 2, z-score of dpERK with insulin": 0.96}
{"gene": "ppk28", "dsRNA": "DRSC19919", "replicate 1, z-score of dpERK with insulin": -0.19, "replicate 2, z-score of dpERK with insulin": 0.57}
{"gene": "CG43058", "dsRNA": "DRSC05434", "replicate 1, z-score of dpERK with insulin": -0.15, "replicate 2, z-score of dpERK with insulin": 0.28}
{"gene": "scrib", "dsRNA": "DRSC13774", "replicate 1, z-score of dpERK with insulin": -0.32, "replicate 2, z-score of dpERK with insulin": -0.66}
{"gene": "scrib", "dsRNA": "DRSC13775", "replicate 1, z-score of dpERK with insulin": -1.44, "replicate 2, z-score of dpERK with insulin": -2.33}
{"gene": "scrib", "dsRNA": "DRSC15809", "replicate 1, z-score of dpERK with insulin": 0.86, "replicate 2, z-score of dpERK with insulin": 0.33}
{"gene": "scrib", "dsRNA": "DRSC17051", "replicate 1, z-score of dpERK with insulin": 0.18, "replicate 2, z-score of dpERK with insulin": -1.4}
{"gene": "maf-S", "dsRNA": "DRSC07348", "replicate 1, z-score of dpERK with insulin": -1.16, "replicate 2, z-score of dpERK with insulin": -1.29}
{"gene": "Chro", "dsRNA": "DRSC11630", "replicate 1, z-score of dpERK with insulin": -1.67, "replicate 2, z-score of dpERK with insulin": -1.02}
{"gene": "Cnx99A + Cnx14D", "dsRNA": "DRSC16610", "replicate 1, z-score of dpERK with insulin": -0.55, "replicate 2, z-score of dpERK with insulin": -0.96}

A few values from above.
Entry of CG12253 [DRSC02153] under “replicate 1, z-score of dpERK with insulin”: 0.41
Grasp65 [DRSC10917], replicate 2, z-score of dpERK with insulin: 0.93
yellow-e [DRSC12966], replicate 2, z-score of dpERK with insulin: 0.16
Entry for Amy-p [DRSC06786] in “replicate 1, z-score of dpERK with insulin”: -0.21
scrib [DRSC15809], replicate 2, z-score of dpERK with insulin → 0.33

Next results:
{"gene": "CG5541", "dsRNA": "DRSC19946", "replicate 1, z-score of dpERK with insulin": -0.2, "replicate 2, z-score of dpERK with insulin": -0.65}
{"gene": "CG11710", "dsRNA": "DRSC20485", "replicate 1, z-score of dpERK with insulin": 0.12, "replicate 2, z-score of dpERK with insulin": 0.56}
{"gene": "CG34450", "dsRNA": "DRSC17822", "replicate 1, z-score of dpERK with insulin": 0.1, "replicate 2, z-score of dpERK with insulin": 0.17}
{"gene": "chn", "dsRNA": "DRSC06086", "replicate 1, z-score of dpERK with insulin": -1.22, "replicate 2, z-score of dpERK with insulin": -0.11}
{"gene": "Scgbeta", "dsRNA": "DRSC15854", "replicate 1, z-score of dpERK with insulin": 0.63, "replicate 2, z-score of dpERK with insulin": 0.6}
{"gene": "p24-1", "dsRNA": "DRSC19827", "replicate 1, z-score of dpERK with insulin": -1.2, "replicate 2, z-score of dpERK with insulin": -0.68}
{"gene": "Aldh7A1", "dsRNA": "DRSC11083", "replicate 1, z-score of dpERK with insulin": 1.19, "replicate 2, z-score of dpERK with insulin": 0.43}
{"gene": "CG43308", "dsRNA": "DRSC05893", "replicate 1, z-score of dpERK with insulin": -0.04, "replicate 2, z-score of dpERK with insulin": 0.33}
{"gene": "CG11634", "dsRNA": "DRSC03700", "replicate 1, z-score of dpERK with insulin": 0.39, "replicate 2, z-score of dpERK with insulin": 0.48}
{"gene": "Tim9a", "dsRNA": "DRSC19753", "replicate 1, z-score of dpERK with insulin": -0.24, "replicate 2, z-score of dpERK with insulin": -0.31}
{"gene": "CG32695", "dsRNA": "DRSC17975", "replicate 1, z-score of dpERK with insulin": -0.16, "replicate 2, z-score of dpERK with insulin": -0.86}
{"gene": "CG5854", "dsRNA": "DRSC15894", "replicate 1, z-score of dpERK with insulin": -0.78, "replicate 2, z-score of dpERK with insulin": 0.02}
{"gene": "Optix", "dsRNA": "DRSC05078", "replicate 1, z-score of dpERK with insulin": 1.13, "replicate 2, z-score of dpERK with insulin": 1.13}
{"gene": "Optix", "dsRNA": "DRSC07484", "replicate 1, z-score of dpERK with insulin": -0.08, "replicate 2, z-score of dpERK with insulin": -0.44}
{"gene": "Optix", "dsRNA": "DRSC21963", "replicate 1, z-score of dpERK with insulin": 0.58, "replicate 2, z-score of dpERK with insulin": 0.4}
{"gene": "CG6000", "dsRNA": "DRSC15938", "replicate 1, z-score of dpERK with insulin": 0.38, "replicate 2, z-score of dpERK with insulin": 0.23}
{"gene": "MstProx", "dsRNA": "DRSC12458", "replicate 1, z-score of dpERK with insulin": 0.83, "replicate 2, z-score of dpERK with insulin": -0.59}
{"gene": "MstProx", "dsRNA": "DRSC12601", "replicate 1, z-score of dpERK with insulin": 0.11, "replicate 2, z-score of dpERK with insulin": 0.21}
{"gene": "CG42507 + Trl", "dsRNA": "DRSC09325", "replicate 1, z-score of dpERK with insulin": -0.74, "replicate 2, z-score of dpERK with insulin": -0.66}
{"gene": "CG42507 + Trl", "dsRNA": "DRSC11308", "replicate 1, z-score of dpERK with insulin": -3.99, "replicate 2, z-score of dpERK with insulin": -5.15}
